Each structure is given as a SMILES string. The list shows a part of the results. Shown are side measurements of this screen, not its main read-out; they come without a call. Most of these compounds were active or inconclusive in the main read-out, so they are no random draw. Potencies come from curve fits of mixed quality, noted in brackets.

This test is described as follows: Cell signaling CRE-BLA (Fsk stim). The settings on record: CHO CRE-bla reporter (cAMP response element driving beta-lactamase), forskolin EC10, beta-lactamase ratio; measured here: 460 nm blue channel. The method, boiled down:
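Forskolin analogue NKH 477 at EC10 stimulated CRE-driven beta-lactamase in CHO cells alongside compound dilution series. Beta-lactamase was measured with CCF4, excitation 405 nm, emission ratio 460/530 nm.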
By AC50 is commonly meant the concentration giving half of the maximal activity seen. As for `Cn1c(=O)[nH]c(=O)c2c1nc(N1CCOCC1)n2CCCSc1ncccn1`, the AC50 is 25.1 µM [rising, single point].
For `COc1ccc(-c2nc3cncnc3n(-c3ccccc3)c2=O)cc1`, the AC50 is 3.16 µM [rising, full curve].
With `O=C(CCN1C(=O)c2ccccc2C1=O)OCn1nnc2ccccc2c1=O` the figure was 0.0631 µM [falling, full curve].
With `O=C(Nc1nc(-c2cc3ccccc3oc2=O)cs1)c1ccco1` the figure was 12.6 µM [rising, partial curve]; with `CC(=O)N1CCc2cc(S(=O)(=O)CCC(=O)O)ccc21`, 0.0316 µM [falling, partial curve, poor fit].
For `COc1ccc(C2NC(=O)NC(O)(C(F)(F)F)C2C(=O)c2ccc(C)cc2)cc1` (centres undefined), the AC50 is 0.398 µM [rising, partial curve].
With `O=C1c2cccc3c(Cl)ccc(c23)C(=O)N1O` the figure was 12.6 µM [rising, single point]; with `Cn1cnc2c1c(=O)n(Cc1ccc(F)cc1Cl)c(=O)n2C`, 12.6 µM [rising, single point]; with `COc1ccc(-n2c(=O)c3ccccc3n(CC(=O)NC3CCCC3)c2=O)cc1`, 0.501 µM [falling, partial curve].
Consider `COc1nc(NCCc2ccc(OC)c(OC)c2)nc(NC(C)(C)CO)n1`, for which the concentration at half-maximal activity (AC50) was 12.6 µM [rising, partial curve].
With `COCCn1c(=O)cnc2cnc(Oc3ccc(OC)cc3)nc21`, the AC50 was 25.1 µM [rising, single point].
With `Cc1cccc(OCCCCc2c(C)n[nH]c2C)c1C` the figure was 12.6 µM [falling, single point]; with `CCc1nc(N)c(C#N)c(-c2ccco2)c1C`, 5.01 µM [rising, partial curve].
With `COc1cccc(Cn2c(=O)c(-c3cccs3)nc3cnc(Nc4ccccc4)nc32)c1` the figure was 0.316 µM [rising, full curve].
With `Cc1cc(Cl)c(S(=O)(=O)N2CCCCCC2)cc1OCC(N)=O` the figure was 0.0158 µM [falling, full curve, poor fit].
As to `C=CCn1c(SCC(=O)NCC2CCCO2)nnc1C1CCCCC1` (centres undefined), the AC50 was 0.501 µM [falling, single point].
With `COc1cccc(-c2nc(C(N)=O)c3[nH]c(=O)n(-c4cccc(Cl)c4)c3n2)c1OC` the figure was 10 µM [rising, partial curve]; with `COc1ccc(N(C(=O)c2ccco2)S(=O)(=O)c2cccs2)cc1`, 12.6 µM [rising, partial curve].
For the compound `CC(C)(C)/C(O)=C(/C#N)c1nc2ccccc2[nH]1`, the AC50 was 10 µM [rising, single point].
With `CS(=O)(=O)NCC(c1cccnc1)N1CCN(c2ccc(F)cc2)CC1` (centres undefined) the figure was 31.6 µM [falling, single point]; with `CN(C)c1nc(N)nc(CSc2nnnn2-c2cccc3ccccc23)n1`, 7.94 µM [rising, partial curve]; with `CC1CC(C)CN(CCCNC(=O)CNC(=O)Cn2ccc3ccccc3c2=O)C1` (centres undefined), 0.0794 µM [falling, full curve].
Take `COc1c2occc2c(OC)c2c(=O)cc(C)oc12`: the AC50 is 7.94 µM [rising, partial curve].
With `Cn1c(C(=O)NCCCN2CCOCC2)cc2c(=O)n(C)c3ccccc3c21` the figure was 10 µM [rising, partial curve].
With `CNc1ncnc2ccc(-c3ccccc3OC)cc12` the figure was 10 µM [rising, partial curve]; with `CC(=O)c1c(C)nn(C(=O)c2cccs2)c1C`, 7.94 µM [falling, partial curve]; with `CCn1c(CCNC(=O)c2ccc(OC)c(OC)c2)nc2ccccc21`, 12.6 µM [rising, partial curve].
In the case of `COc1ccc2c(CCNC(=O)c3ccco3)c[nH]c2c1`, the AC50 is 0.631 µM [falling, partial curve].
With `COc1cc(C(=O)N2CCN(c3cccc(C)c3C)CC2)cc(OC)c1OC` the figure was 10 µM [rising, partial curve]; with `COc1ccc(S(=O)(=O)CCC(=O)N2CC(=O)N(CCc3ccccc3)C(=O)C2)cc1`, 0.00631 µM [falling, full curve]; with `COc1cccc(Cn2c(=O)cnc3cnc(OCc4ccccc4)nc32)c1`, 12.6 µM [rising, partial curve].
With `CCN(CC)CCNCc1ccc(-c2ccc(Cl)cc2)o1` the figure was 12.6 µM [rising, partial curve]; with `Cn1nc(-c2ccc(C(=O)NCC3CCCO3)cc2)c2ccccc2c1=O` (centres undefined), 12.6 µM [rising, partial curve]; with `Cc1ccccc1CN1C2=NCCN2C(=O)C2=C1CCN(Cc1ccccc1)C2`, 5.01 µM [rising, single point].
With `O=C(CCN1CCOCC1)Nc1cccc(Br)c1` the figure was 10 µM [falling, partial curve]; with `CCOC(=O)c1ccccc1NC(=O)CSc1ncc(C(=O)OCC)c(N)n1`, 3.98 µM [rising, single point].
Regarding `CC1CCCC(C)N1C(=O)COc1ccc(-c2nnco2)cc1` (centres undefined), the AC50 was 3.98 µM [falling, partial curve].
Regarding `Cc1nc2cc3nc(C)sc3cc2s1`, the AC50 is 12.6 µM [rising, single point].
As for `CCOC(=O)c1c(-c2cccs2)csc1NC(=O)COC(=O)c1c(C)noc1C`, the AC50 was 3.98 µM [rising, full curve].
With `Fc1ccc(-c2cc3nc(-c4ccccc4)cc(N4CCN(CCN5CCOCC5)CC4)n3n2)cc1`, the AC50 was 10 µM [rising, partial curve].
In the case of `CCOc1ccc(CN2CCC(=O)NC2=O)cc1`, the AC50 is 1 µM [falling, full curve].
Turning to `Cc1cccc(NC(=O)Cn2cnc3sc(C)c(S(=O)(=O)N4CCC(C)CC4)c3c2=O)n1`, the half-maximal activity concentration (AC50) was 0.316 µM [falling, full curve, poor fit].
With `Clc1ccccc1-c1nc(-n2ccnc2)c2ccccc2n1` the figure was 7.94 µM [rising, partial curve]; with `CCOc1c(OC)cccc1C1CC(=O)Nc2cc(OC)c(OC)cc21` (centres undefined), 15.8 µM [rising, partial curve].
With `Cc1cc(C)nc(N2CCCC(C(=O)Nc3nc4ccc(S(C)(=O)=O)cc4s3)C2)n1` (centres undefined), the concentration at half-maximal activity (AC50) is 12.6 µM [rising, single point].
In the case of `Cc1ccccc1NS(=O)(=O)c1ccc(NC(=O)c2ccco2)cc1`, the concentration at half-maximal activity (AC50) was 12.6 µM [rising, single point].
With `CCOC(=O)c1[nH]c2ccc(OCC)cc2c1NC(=O)CN1CCC2(CC1)OCCO2` the figure was 12.6 µM [rising, partial curve]; with `CN(C)c1ncc2nc(-c3ccc(F)cc3)c(=O)n(C)c2n1`, 3.16 µM [rising, partial curve].
Consider `COc1ccc(CC(=O)OCc2cc3ccc(C)cc3[nH]c2=O)cc1`, for which the AC50 was 2.51 µM [falling, full curve].
With `N#Cc1c(-c2ccco2)cc(-c2ccc(F)cc2)nc1N` the figure was 12.6 µM [rising, single point]; with `CC(C)C[C@H](N)c1nnc(S(=O)(=O)Cc2ccc(F)cc2)o1`, 6.31 µM [falling, full curve]; with `CC1CCN(c2oc(Cc3cccc4ccccc34)nc2C#N)CC1`, 5.01 µM [rising, partial curve].
With `N#Cc1nc(-c2ccccc2Cl)oc1NCc1ccco1` the figure was 15.8 µM [rising, single point]; with `COc1ccc(-c2nc3cnc(Nc4ccccc4)nc3n(Cc3cccs3)c2=O)cc1`, 12.6 µM [rising, partial curve]; with `COc1cc2c(cc1OC)-c1cc(Nc3ccc4c(c3)OCCO4)nc(=O)n1CC2`, 5.01 µM [rising, partial curve].
With `OC(c1cccc(OCc2ccccc2)c1)c1nnc(-c2ccccc2)o1` (centres undefined) the figure was 3.98 µM [falling, single point].
Turning to `COc1cccc(Cn2c(Oc3cccc(C)c3)nc3c2c(=O)n(C)c(=O)n3C)c1`, the AC50 is 0.126 µM [rising, single point].
With `CCOC(=O)c1oc2ccccc2c1NC(=O)C1CCCCC1` the figure was 2 µM [rising, full curve, poor fit].
With `O=C1CN(C(=O)CCCc2c[nH]c3ccccc23)c2ccccc2N1` the figure was 12.6 µM [rising, partial curve]; with `CCOC(=O)CSc1nnc(CNC(=O)c2cccs2)n1-c1cc(OC)ccc1OC`, 0.0794 µM [falling, full curve]; with `O=C(CN1CCCCC1)Nc1cccc(Br)c1`, 3.16 µM [falling, partial curve, poor fit].
With `Oc1ccc(Cl)cc1Cc1cc(Cl)cc(Cc2cc(Cl)ccc2O)c1O` the figure was 3.98 µM [falling, single point].
Take `CN(C)c1ncc2nc(-c3ccc(Cl)cc3)c(=O)n(Cc3ccc(F)cc3)c2n1`: the AC50 was 2 µM [rising, partial curve].
With `CCc1nc2ccccc2n1CCC(C)C` the figure was 12.6 µM [rising, single point].
`COc1ccccc1-c1nc(C#N)c(N2CCN(Cc3ccccc3)CC2)o1`: the AC50 is 3.16 µM [rising, full curve, poor fit].
With `CN(CCc1ccccn1)C(=O)c1nn2c(C(F)(F)F)cc(-c3ccco3)nc2c1Cl` the figure was 1.58 µM [rising, partial curve].
With `COc1ccc(NC(=O)C2OCCc3ccccc32)c(OC)c1` (centres undefined) the figure was 0.00398 µM [falling, full curve, poor fit]; with `Cn1c(=O)c(-c2ccc(F)cc2)nc2cnc(OCc3ccccc3)nc21`, 15.8 µM [rising, partial curve]; with `O=C1CC(c2ccc3c(c2)OCO3)c2cc3c(cc2N1)OCO3` (centres undefined), 0.00316 µM [falling, full curve, poor fit].

Source of the values: PubChem BioAssay AID662 (National Center for Advancing Translational Sciences (NCATS), 2007).
